Experiments:
[1] = test system: PC-3 cells; experiment: MTT cell survival assay, PC-3 cells; type: cell-based; settings: Homo sapiens, 72 h
Experimental: (§1) The effects of the test compounds on the survival of PC-3, SH-SY5Y, Balb/c 3T3 and HEK293 cells was measured with the aid of the 3-(4,5-dimethylthiazol-2-yl)-2,5-diphenyltetrazolium bromide (MTT) assay. The cells were cultured in 96-well plates (100 μL/well) for 72 h. The optimized initial densities were the following: for PC-3—60,000 cells/mL, SH-SY5Y and Balb/c 3T3—50,000 cells/mL.
(§2) After 20 h preincubation and evaluation of the uniformity of cell growth, the medium was aspirated, and the respective solutions of the substances were added to the culture medium. Control cells were only treated the solvent used for the compounds and medium alone.
(§3) MTT (3-(4,5-dimethylthiazol-2-yl)-2,5-diphenyltetrazolium bromide) is reduced by intracellular dehydrogenase, which is present only in live cells (mitochondria), to purple, water-insoluble formazan. After it is dissolved, formazan absorbance of the resulting solution is directly proportional to the number of living cells in culture.
(§4) After appropriate incubation, the culture medium was removed. Next, 50 μL of MTT solution (0.5 mg/mL) diluted in PBS to 0.5 mg/mL was added to each well. […] The test was performed in three to five independent experiments with four times the measured concentration tested. The cell survival percentage was determined as % of controls, which were cells treated with the test compound solvent at the highest concentration.

[2] = test system: SH-SY5Y cells; experiment: MTT cell survival assay, SH-SY5Y cells; type: cell-based; settings: Homo sapiens, 72 h
Experimental: as §1, §2, §3, §4

[3] = test system: Balb/c 3T3 cells; experiment: MTT cell survival assay, Balb/c 3T3 cells (normal reference); type: cell-based, murine; settings: Mus musculus, BALB/c3T3, 72 h
Experimental: as §1, §2, §3
After appropriate incubation, the culture medium was removed. Next, 50 μL of MTT solution (0.5 mg/mL) diluted in PBS to 0.5 mg/mL was added to each well. […] After a 24-hour incubation at 4 °C in the dark, the absorbance of the dissolved formazan was measured at 570 nm (the maximum absorption of formazan) and at 690 nm (reference wavelength) using a Power Wave XS microplate spectrophotometer (Bio-Tek, Winooski, VT, USA). […]

CNCCC(Oc1ccc(C(F)(F)F)cc1)c1ccccc1 (stereo not drawn) [Fluoxetine, fluoxetine, reference compound]
IC50 [1]: 17.1 ± 1.38 µM
IC50 [2]: 25.3 ± 4.41 µM
IC50 [3]: 26.2 ± 2.71 µM

Reference: PMC6214143, “Oncotoxic Properties of Serotonin Transporter Inhibitors and 5-HT1A Receptor Ligands” (International Journal of Molecular Sciences, 2018)
